According to the supplement of paper PMC3741180, “A Novel High Throughput Biochemical Assay to Evaluate the HuR Protein-RNA Complex Formation” (PLoS ONE, 2013):
The other results are listed elsewhere or left out. Most values lie within the scatter of the assay; repeated measurements hardly agree.

Amino acid sequences for entries named in this document (tags omitted).
UniProt Q15717, whole entry: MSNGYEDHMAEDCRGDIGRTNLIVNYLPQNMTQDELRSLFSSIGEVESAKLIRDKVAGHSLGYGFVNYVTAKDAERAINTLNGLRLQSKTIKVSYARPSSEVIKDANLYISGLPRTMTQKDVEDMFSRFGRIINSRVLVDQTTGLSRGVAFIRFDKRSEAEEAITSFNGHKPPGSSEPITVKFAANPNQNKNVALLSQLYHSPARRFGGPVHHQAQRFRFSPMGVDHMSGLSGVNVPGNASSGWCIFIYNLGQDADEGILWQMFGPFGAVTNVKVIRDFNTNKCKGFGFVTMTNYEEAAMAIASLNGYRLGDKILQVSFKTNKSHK

molecular target: HuR (ELAVL1) - TNFalpha ARE RNA complex (UniProt Q15717); test: AlphaScreen HuR-RNA complex signal Z-score relative to positive (Bi-TNF, DMSO) controls (Z-score (SD units of positive control)); higher = more complex signal; details: screen stage: primary screen; compound concentration: 25 nM

| Compound | AlphaScreen HuR-RNA complex signal Z-score |
| --- | --- |
| CC(=O)O[C@H]1C[C@H](O[C@H]2[C@@H](O)C[C@H](O[C@H]3[C@@H](O)C[C@H](O[C@H]4CC[C@@]5(C)[C@H](CC[C@@H]6[C@@H]5C[C@@H](O)[C@]5(C)[C@@H](C7=CC(=O)OC7)CC[C@]65O)C4)O[C@@H]3C)O[C@@H]2C)O[C@H](C)[C@H]1O[C@@H]1O[C@H](CO)[C@@H](O)[C@H](O)[C@H]1O | 1.77 |
| COc1ccc(CCN2CCC(Nc3nc4ccccc4n3Cc3ccc(F)cc3)CC2)cc1 | 3.49 |
| O=C1C=C2C(=CCOC2O)O1 (stereo not drawn) | 1.32 |
| CC1=C2[C@H]3OC(=O)[C@@H](C)[C@@H]3CC[C@@]2(C)C=CC1=O | 2.32 |
| CCC(N)C(O)c1ccc(O)c(O)c1 (stereo not drawn) | 1.5 |
| Oc1cc(Cl)ccc1Oc1ccc(Cl)cc1Cl | 2.39 |
| O=C1CCCN1CC#CCN1CCCC1 | 3.36 |
| COc1ccc(Cc2nccc3cc(OC)c(OC)cc23)cc1OC | 2.72 |
| CCC1(CC)C(=O)C=CNC1=O | 2.86 |
| O=C(NC(=O)c1c(F)cccc1F)Nc1cc(Cl)c(OC(F)(F)C(F)C(F)(F)F)cc1Cl (stereo not drawn) | 2.6 |
| COc1cc2c(cc1OC)[C@H](C)NCC2 | 2.05 |
| COc1cc2c(cc1OC)[C@@]13CCN4CC5=CCO[C@H]6CC(=O)N2[C@H]1[C@H]6[C@H]5C[C@H]43 | -0.445 |
| COC(=O)C1=CCCN(C)C1 | 0.475 |
| C=C(C)[C@H]1Cc2c(ccc3c2O[C@@H]2COc4cc(OC)c(OC)cc4[C@@H]2C3=O)O1 | 2.07 |
| CCC1(c2ccc(N)cc2)CCC(=O)NC1=O (stereo not drawn) | 0.32 |
| C[C@@H](N)[C@@H](O)c1ccccc1 | 1.35 |
| NCCc1ccc(O)cc1 | -1.58 |
| CN(C)C(=O)Oc1cc(OC(=O)N(C)C)cc(C(O)CNC(C)(C)C)c1 (stereo not drawn) | 2.33 |
| CCn1cc(C(=O)O)c(=O)c2cc3c(cc21)OCO3 | 1.97 |
| C[C@]12CC[C@H](O)C[C@@H]1CC[C@@H]1[C@@H]2CC[C@]2(C)C(=O)CC[C@@H]12 | 1.46 |

| Compound | AlphaScreen HuR-RNA complex signal Z-score |
| --- | --- |
| C[N+]1(C)[C@@H]2C[C@@H](OC(=O)[C@H](CO)c3ccccc3)C[C@H]1[C@@H]1O[C@@H]12 | 7.22 |
| CO[C@H]1C[C@H](O[C@H]2CC[C@]3(C=O)[C@H]4CC[C@]5(C)[C@@H](C6=CC(=O)OC6)CC[C@]5(O)[C@@H]4CC[C@]3(O)C2)O[C@H](C)[C@H]1O | -4.93 |
| CC1(C)C2C[C@@H](O)[C@]3(C)C(CC[C@@]4(C)[C@H](c5ccoc5)OC(=O)[C@H]5O[C@]543)[C@@]2(C)[C@@H](O)C[C@H]1O (stereo partly drawn) | 2.66 |
| C[C@@H]1O[C@@H](O[C@H]2C[C@@H](O)[C@]3(CO)[C@H]4[C@H](O)C[C@]5(C)[C@@H](C6=CC(=O)OC6)CC[C@]5(O)[C@@H]4CC[C@]3(O)C2)[C@H](O)[C@H](O)[C@H]1O | 0.858 |
| COc1ccc2c3c([nH]c2c1)C(C)=NCC3 | 1.26 |
| c1cncc(C2=NCCC2)c1 | 1.06 |
| Cc1nccc2c1[nH]c1ccccc12 | 2.02 |
| C[C@]12C=CC(=O)C=C1CC[C@@H]1[C@@H]2CC[C@]2(C)C(=O)CC[C@@H]12 | 1.1 |
| CCN1C[C@]2(OC(=O)c3ccccc3NC(C)=O)CC[C@H](OC)[C@@]34[C@@H]2C[C@@H]([C@@H]13)[C@@]1(O)C[C@H](OC)[C@H]2C[C@@H]4[C@]1(O)[C@H]2OC | 1.74 |
| CC(=O)CC1CCCCN1 (stereo not drawn) | 1.68 |
| CCN1C[C@]2(COC)[C@H](O)C[C@H](OC)[C@@]34[C@@H]5C[C@@]6(O)[C@H](OC(=O)c7ccccc7)[C@@H]5[C@@](OC(C)=O)([C@@H]([C@H](OC)[C@H]23)[C@@H]14)[C@@H](O)[C@@H]6OC | -0.312 |
| CC[C@@]1(O)C[C@H](O[C@H]2C[C@H](N(C)C)[C@H](O)[C@H](C)O2)c2c(cc3c(c2O)C(=O)c2c(O)ccc(O)c2C3=O)[C@H]1C(=O)OC | 1.13 |
| O=[N+]([O-])c1cc([As](=O)(O)O)ccc1O | 41.9 |
| CC(=O)C1CCC2C3CCC4C[C@H](O)CCC4(C)C3C[C@H](O)C12C (stereo partly drawn) [DIHYDROXY (3alpha,12alpha)PREGNAN-20-ONE] | 1.27 |
| CC(C)CCCC1(C)C=Cc2c(O)c3c(c(CCC(C)C)c2O1)OC12C(CC4CC1C(C)(C)OC2(CCC(C)C(=O)O)C4O)C3=O (stereo not drawn) | -0.698 |
| O=P1(NCCCl)OCCCN1CCCl (stereo not drawn) | 1.01 |
| C=C(C)[C@@H]1[C@H]2OC(=O)[C@@H]1[C@]1(O)C[C@H]3O[C@]34C(=O)O[C@H]2[C@]14C | 1.92 |
| Oc1ccc(Cl)cc1 | 5.31 |
| CC(C)c1c(CN(C)C(C)Cc2ccccc2)n(C)n(-c2ccccc2)c1=O (stereo not drawn) | 0.407 |
| COS(C)(=O)=O | 0.986 |

| Compound | AlphaScreen HuR-RNA complex signal Z-score |
| --- | --- |
| CCCCN(CC)c1c([N+](=O)[O-])cc(C(F)(F)F)cc1[N+](=O)[O-] | 1.97 |
| CC(=O)OC1CCC23C(=O)OC45CCC(C6=CC(=O)OC6)C4(C)CCC2C5CCC3(O)C1 (stereo not drawn) | 1.53 |
| NC(=O)CN1CCCC1=O | 1.4 |
| C[C@@H](CO)NC(=O)[C@@H]1C=C2c3cccc4[nH]cc(c34)C[C@H]2N(C)C1 | -2.83 |
| CN1CCN(C(=O)OC2c3nccnc3C(=O)N2c2ccc(Cl)cn2)CC1 (stereo not drawn) | 0.77 |
| NCCc1c[nH]c2ccccc12 | 1.44 |
| C[C@]12CC[C@H](O)C[C@H]1CC[C@@H]1[C@@H]2C[C@@H](O)[C@]2(C)[C@@H](C3=CC(=O)OC3)CC[C@]12O | 2.01 |
| NC(=O)C[S+]([O-])C(c1ccccc1)c1ccccc1 (stereo not drawn) | 0.267 |
| ClC1=C(Cl)C2(Cl)C3C4C=CC(C4)C3C1(Cl)C2(Cl)Cl (stereo not drawn) | 2.68 |
| COC(=O)COc1cc(Cl)c(Cl)cc1Cl | 0.699 |
| CC(=O)OCC1=C(C(=O)O)N2C(=O)[C@@H](NC(=O)CCC[C@@H](N)C(=O)O)[C@H]2SC1 | 1.42 |
| COc1c2c(cc3c1OCO3)CC[N+](C)=C2 | 0.554 |
| Cc1cccc(C)c1NC1=NCCCS1 | 1.06 |
| CC(C)(C)C(=O)C(Oc1ccc(Cl)cc1)n1cncn1 (stereo not drawn) | -0.066 |
| CC[C@H]1CN2CCc3cc(OC)c(OC)cc3[C@@H]2C[C@@H]1C[C@H]1NCCc2cc(OC)c(OC)cc21 | -3.54 |
| CNC(C)C(O)c1ccccc1 (stereo not drawn) | 4.66 |
| COc1cc([C@@H]2c3cc4c(cc3[C@H](O)[C@H]3COC(=O)[C@H]23)OCO4)cc(OC)c1OC | -1.25 |
| Cc1ccc(O)cc1.Cc1cccc(O)c1.Cc1ccccc1O | -1.01 |

Some of these compounds in order of molecular weight, ascending:

| Compound | AlphaScreen HuR-RNA complex signal Z-score |
| --- | --- |
| NC(=O)CN1CCCC1=O | 1.4 |
| NCCc1c[nH]c2ccccc12 | 1.44 |
| Cc1cccc(C)c1NC1=NCCCS1 | 1.06 |
| C[C@]12CC[C@H](O)C[C@H]1CC[C@@H]1[C@@H]2C[C@@H](O)[C@]2(C)[C@@H](C3=CC(=O)OC3)CC[C@]12O | 2.01 |
| CC(=O)OCC1=C(C(=O)O)N2C(=O)[C@@H](NC(=O)CCC[C@@H](N)C(=O)O)[C@H]2SC1 | 1.42 |
